# PubChem BioAssay AID1259254 | NCATS, 2017
# Purpose: 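Genome-wide screen for genes that prevent DNA re-replication in cancer cells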 (primary screen)
# System: human HCT116 colorectal cancer cells
# Reagent: single siRNA against human genes
# Time to read-out: 3 days
# Measured: 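Imaged Hoechst DNA stain sorts each cell into a cycle phase by DNA amount; per plate, G2 fraction set to 0% for non-targeting and 100% for GMNN siRNA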
# Scale: G2 robust z-score: higher = more G2 cells, more excess DNA replication
# Hit rule: 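Active siRNAs have a G2 robust z of 5 or more median absolute deviations over the median, which in these data means about 38% or higher of GMNN control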
# The whole screen tested about 59,000 reagents; this is a part drawn at random. Of all reagents, about 1,550 (2.6%) were called active. 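G2 share is only a proxy for re-replication; each gene was hit by three separate siRNAs, and active genes were retested.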 Entries without a mark were called inactive. The numbers tell different reagents against one gene apart. Not all columns of the deposit are shown. Not stated in the record: the amount of reagent.
gene knocked down,reagent no.,G2 robust z-score
KYNU (kynureninase),1,0.102
KYNU (kynureninase),2,3.55
KYNU (kynureninase),3,-0.0147
RCN1 (reticulocalbin 1),1,-0.591
RCN1 (reticulocalbin 1),2,-0.505
RCN1 (reticulocalbin 1),3,-0.272
MYOCD (myocardin),1,0.677
MYOCD (myocardin),2,0.29
MYOCD (myocardin),3,-0.221
GOPC (golgi associated PDZ and coiled-coil motif containing),1,0.00401
GOPC (golgi associated PDZ and coiled-coil motif containing),2,-0.396
GOPC (golgi associated PDZ and coiled-coil motif containing),3,-0.285
C16orf89 (chromosome 16 open reading frame 89),1,-0.285
C16orf89 (chromosome 16 open reading frame 89),2,-1.01
C16orf89 (chromosome 16 open reading frame 89),3,0.561
PRICKLE2 (prickle planar cell polarity protein 2),1,1.43
PRICKLE2 (prickle planar cell polarity protein 2),2,-0.11
PRICKLE2 (prickle planar cell polarity protein 2),3,1.28
RPL26P11 (ribosomal protein L26 pseudogene 11),1,-0.0325
RPL26P11 (ribosomal protein L26 pseudogene 11),2,7.09 (active)
RPL26P11 (ribosomal protein L26 pseudogene 11),3,-0.424
IRAK1BP1 (interleukin 1 receptor associated kinase 1 binding protein 1),1,0.752
IRAK1BP1 (interleukin 1 receptor associated kinase 1 binding protein 1),2,0.658
IRAK1BP1 (interleukin 1 receptor associated kinase 1 binding protein 1),3,1.88
MGA (MAX dimerization protein MGA),1,0.301
MGA (MAX dimerization protein MGA),2,-1
MGA (MAX dimerization protein MGA),3,-0.886
PAN2 (poly(A) specific ribonuclease subunit PAN2),1,1.02
PAN2 (poly(A) specific ribonuclease subunit PAN2),2,0.108
PAN2 (poly(A) specific ribonuclease subunit PAN2),3,-0.584
NMT2 (N-myristoyltransferase 2),1,0.72
NMT2 (N-myristoyltransferase 2),2,-1.06
NMT2 (N-myristoyltransferase 2),3,0.552
OR52J3 (olfactory receptor family 52 subfamily J member 3),1,-0.418
OR52J3 (olfactory receptor family 52 subfamily J member 3),2,-0.655
OR52J3 (olfactory receptor family 52 subfamily J member 3),3,-0.191
HDAC7 (histone deacetylase 7),1,0.0312
HDAC7 (histone deacetylase 7),2,8.11 (active)
HDAC7 (histone deacetylase 7),3,-0.698
SLC22A16,1,0.975
SLC22A16,2,-0.533
SLC22A16,3,0.145
PHF7 (PHD finger protein 7),1,0.157
PHF7 (PHD finger protein 7),2,-0.237
PHF7 (PHD finger protein 7),3,0.553
STRIP1 (striatin interacting protein 1),1,0.329
STRIP1 (striatin interacting protein 1),2,4.72
STRIP1 (striatin interacting protein 1),3,1.48
HAUS6 (HAUS augmin like complex subunit 6),1,0.103
HAUS6 (HAUS augmin like complex subunit 6),2,0.846
HAUS6 (HAUS augmin like complex subunit 6),3,3.26
ZNF490 (zinc finger protein 490),1,-0.61
ZNF490 (zinc finger protein 490),2,-0.232
ZNF490 (zinc finger protein 490),3,-0.0883
CERS3 (ceramide synthase 3),1,3.25
CERS3 (ceramide synthase 3),2,-0.633
CERS3 (ceramide synthase 3),3,1.52
SGPL1 (sphingosine-1-phosphate lyase 1),1,0.21
SGPL1 (sphingosine-1-phosphate lyase 1),2,1.76
SGPL1 (sphingosine-1-phosphate lyase 1),3,1.56
SLC6A14,1,-0.255
SLC6A14,2,-0.653
SLC6A14,3,2.09
RPS10P15 (ribosomal protein S10 pseudogene 15),1,-0.294
RPS10P15 (ribosomal protein S10 pseudogene 15),2,3.93
RPS10P15 (ribosomal protein S10 pseudogene 15),3,0.185
MFSD12 (major facilitator superfamily domain containing 12),1,0.29
MFSD12 (major facilitator superfamily domain containing 12),2,3.8
MFSD12 (major facilitator superfamily domain containing 12),3,1.92

Records above whose target name starts with N or n (3):
gene knocked down,reagent no.,G2 robust z-score
NMT2 (N-myristoyltransferase 2),1,0.72
NMT2 (N-myristoyltransferase 2),2,-1.06
NMT2 (N-myristoyltransferase 2),3,0.552
